The list shows a part of the results. Further columns of the screen follow, without active or inactive calls. The list favours compounds with an active or inconclusive main result. Potencies come from curve fits of mixed quality, noted in brackets.
Assay: qHTS Assay for Lipid Storage Modulators in Drosophila S3 Cells;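 for cell number change: cells counted by Cell Tracker Red CMTPX staining in the red channel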
Conditions: BODIPY lipid droplet fluorescence, 18-24 h; for cell number change: measured here: cell count max response, cells fed with added oleic acid
Method in brief: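 Laser-scanning cytometry quantifies lipid droplet accumulation (500–530 nm total intensity; droplet/cell object ratio) in oleic acid-fed (400 uM added) Drosophila S3 cells treated with a concentration series. 20 uM Triacsin C defined 100% inhibition.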

[1] = measured here: lipid fluorescence (Fed channel) AC50, cells fed with added oleic acid
[2] = measured here: cell number channel AC50, cells fed with added oleic acid

Structure (SMILES)	cell number change	AC50 [1]	AC50 [2]
CC1CCCC(C)N1C(=O)c1cc(-c2ccc(Cl)c(Cl)c2)on1 (stereo not drawn)	5.66%	20600 nM [rising, single point]	
Nc1ncnc2nc(SCC(=O)N3CCN(c4ccccc4)CC3)[nH]c12	35.4%	920 nM [rising, single point]	1640 nM [rising, partial curve, poor fit]
COc1cccc(CN(C)C(=O)CNC(=O)c2ccc(-c3ccccc3)cc2)c1OC	-23%	6510 nM [rising, single point]	
O=C(NCCCN1CCCC1=O)c1ccc(NS(=O)(=O)c2ccc(F)cc2)cc1	-9.09%	116 nM [falling, full curve, poor fit]	
COc1ccccc1OCCCCOc1ccccc1C(C)=O	3.87%	5800 nM [falling, partial curve]	
O=C(CCNC(=O)c1ccccc1)N=Nc1c(O)[nH]c2ccccc12	17.2%	29100 nM [rising, single point]	517 nM [rising, full curve, poor fit]
COc1ccc(CNC(=O)C2CCC(CNS(=O)(=O)c3cccs3)CC2)cc1 (stereo not drawn)	-10.3%		
O=C(c1ccc2c(c1)OCO2)N1CCN(c2ccccc2)CC1	-3.33%	8200 nM [rising, partial curve]	
CCOC(=O)C1C(=O)CC(C)(O)C(C(=O)OCC)C1c1ccc(OC)cc1 (stereo not drawn)	-2.37%	651 nM [falling, full curve, poor fit]	1460 nM [falling, partial curve, poor fit]
CSCCC(NC(=O)c1c(C)oc2c1CCCC2)C(=O)O (stereo not drawn)	-3.14%	5170 nM [falling, partial curve, poor fit]	
O=C(O)c1cc2cc(F)ccc2[nH]1	20%	6510 nM [falling, single point]	
Cc1ccccc1-n1c(SCC(=O)N2CCN(c3ccccn3)CC2)nnc1N1CCOCC1	-7.73%		
CC1CCCC(C)N1C(=O)c1ccc2c(c1)S(=O)(=O)c1ccccc1C2=O (stereo not drawn)	6.45%		
CCOC(=O)c1cccc(NC(=O)c2cncc(Br)c2)c1	32.3%	6510 nM [rising, single point]	461 nM [rising, partial curve, poor fit]
COc1ccccc1NC(=O)CCC(=O)O			5170 nM [falling, single point]
O=C(COC(=O)CCCOc1ccc(Cl)cc1Cl)NCc1ccc(F)cc1	9.77%	20600 nM [rising, single point]	
Oc1c(N=NC(=S)Nc2ccccc2F)c2ccccc2n1Cc1ccccc1	-25.9%	4.61 nM [falling, full curve, poor fit]	
CC(=O)Nc1ccc(S(=O)(=O)NC2CC3CCC2C3)cc1 (stereo not drawn)	16.8%	29100 nM [rising, single point]	
COCCCNC(=S)NC(=O)c1ccc([N+](=O)[O-])cc1	-16.7%	461 nM [rising, full curve, poor fit]	4.11 nM [falling, full curve, poor fit]
COc1cc(NC(=O)C2CCN(S(=O)(=O)c3cnc[nH]3)CC2)cc(OC)c1OC	-57.6%		16400 nM [falling, single point]
O=c1cc(CSc2ccc(Cl)cc2)nc(-c2ccccc2)[nH]1	67.7%		6510 nM [falling, single point]
O=C(Cn1c(=O)n(Cc2ccc(F)cc2)c(=O)c2ccccc21)NCC1CCCO1 (stereo not drawn)	20.4%	580 nM [falling, single point]	
O=C1CCc2cc(S(=O)(=O)N3CCC(C(=O)NC4CCCC4)CC3)ccc2N1	-21.8%	2060 nM [falling, full curve]	146 nM [falling, full curve, poor fit]
CCCCN(CC)C(=O)Cc1ccccc1OC	85.3%		29100 nM [rising, single point]
COc1cc(NC(=O)C(C)C)ccc1NC(=O)c1cc2ccccc2o1	-12.9%	16400 nM [falling, single point]	
CCCC(O)(CCN1CCCCC1)c1ccc(OCC)cc1 (stereo not drawn)		5.8 nM [falling, full curve]	
Cc1ccc(C)c(NC(=O)CN(C)C(=O)c2cc3c(s2)CCCCC3)c1		461 nM [rising, partial curve]	164 nM [rising, partial curve, poor fit]
CN(CC(=O)Nc1ccc(F)c(F)c1F)C(=O)C1CSC2(C)CCC(=O)N12 (stereo not drawn)	20.4%	92 nM [falling, full curve, poor fit]	
O=C(CCS(=O)(=O)c1cc(Br)cc2c1N(C(=O)C1CC1)CC2)NCC1CCCO1 (stereo not drawn)			3660 nM [rising, single point]

7 consecutive compounds already listed, for reference:
Structure (SMILES)	cell number change	AC50 [1]	AC50 [2]
COc1cccc(CN(C)C(=O)CNC(=O)c2ccc(-c3ccccc3)cc2)c1OC	-23%	6510 nM [rising, single point]	
O=C(NCCCN1CCCC1=O)c1ccc(NS(=O)(=O)c2ccc(F)cc2)cc1	-9.09%	116 nM [falling, full curve, poor fit]	
COc1ccccc1OCCCCOc1ccccc1C(C)=O	3.87%	5800 nM [falling, partial curve]	
O=C(CCNC(=O)c1ccccc1)N=Nc1c(O)[nH]c2ccccc12	17.2%	29100 nM [rising, single point]	517 nM [rising, full curve, poor fit]
COc1ccc(CNC(=O)C2CCC(CNS(=O)(=O)c3cccs3)CC2)cc1 (stereo not drawn)	-10.3%		
O=C(c1ccc2c(c1)OCO2)N1CCN(c2ccccc2)CC1	-3.33%	8200 nM [rising, partial curve]	
CCOC(=O)C1C(=O)CC(C)(O)C(C(=O)OCC)C1c1ccc(OC)cc1 (stereo not drawn)	-2.37%	651 nM [falling, full curve, poor fit]	1460 nM [falling, partial curve, poor fit]
